Data source: PubChem BioAssay AID1508597 (Cure First, 2020)
Purpose: 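Survival screen with siRNA in ovarian cancer cells derived from patients, with or without rucaparib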 (primary screen). Cell system: human ovarian carcinoma lines grown from tumours: OCI-P5x (papillary serous) and OCI-C5x (clear cell). Reagents: siRNA pool against human genes, 1.25 pmol siRNA per well. Duration: 72 h or 96 h, depending on the cell culture. Conditions: rucaparib 20 µM (about IC30) or vehicle, present until read-out. Measurement: 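ATP luminescence measured at 72 or 96 h according to the culture, then normalised and expressed as percent viability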. Scale: viability, normalised: higher = more viable cells remaining. Call rule: 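Active when normalised viability falls below 80 percent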. Calls: active = viability under 80%; inactive = viability 80% or more.
Shown is a random part of about 2,100 reagents tested. 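Calls flag viability under 80% in either arm, not effects specific to rucaparib; the reference for percent is not stated.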 A number with no mark means an inactive call. Reagent sequences are not shown. The record does not give: the 100% reference.

With MYOCD, rucaparib or vehicle Rucaparib, cell line OCI-C5x (clear cell), technical replicate 1, what does the deposit list?
viability, normalised (%): 40.4 (active)

How did the screen score MYOCD, rucaparib or vehicle Rucaparib, cell line OCI-C5x (clear cell), technical replicate 2?
viability, normalised (%): 32 (active)

Which result is listed for MYOCD, rucaparib or vehicle Rucaparib, cell line OCI-C5x (clear cell), technical replicate 3?
viability, normalised (%): 36.4 (active)

Which result is listed for MYOCD, rucaparib or vehicle Rucaparib, cell line OCI-P5x (serous), technical replicate 1?
viability, normalised (%): 33.6 (active)

For MYOCD, rucaparib or vehicle Rucaparib, cell line OCI-P5x (serous), technical replicate 2, how do the results read?
viability, normalised (%): 55.1 (active)

What is on record for MYOCD, rucaparib or vehicle Rucaparib, cell line OCI-P5x (serous), technical replicate 3?
viability, normalised (%): 50.7 (active)

What did the screen give for MYOCD, rucaparib or vehicle Vehicle, cell line OCI-C5x (clear cell), technical replicate 1?
viability, normalised (%): 26.4 (active)

Which result is listed for MYOCD, rucaparib or vehicle Vehicle, cell line OCI-C5x (clear cell), technical replicate 2?
viability, normalised (%): 28.6 (active)

For MYOCD, rucaparib or vehicle Vehicle, cell line OCI-C5x (clear cell), technical replicate 3, what was measured?
viability, normalised (%): 41.5 (active)

Which result is listed for MYOCD, rucaparib or vehicle Vehicle, cell line OCI-P5x (serous), technical replicate 1?
viability, normalised (%): 39 (active)

Which result is listed for MYOCD, rucaparib or vehicle Vehicle, cell line OCI-P5x (serous), technical replicate 2?
viability, normalised (%): 44.7 (active)

With MYOCD, rucaparib or vehicle Vehicle, cell line OCI-P5x (serous), technical replicate 3, what was measured?
viability, normalised (%): 41.7 (active)

What is on record for NPR2, rucaparib or vehicle Rucaparib, cell line OCI-C5x (clear cell), technical replicate 1?
viability, normalised (%): 38.2 (active)

What is on record for NPR2, rucaparib or vehicle Rucaparib, cell line OCI-C5x (clear cell), technical replicate 2?
viability, normalised (%): 46.2 (active)

What is on record for NPR2, rucaparib or vehicle Rucaparib, cell line OCI-C5x (clear cell), technical replicate 3?
viability, normalised (%): 46.5 (active)

What is on record for NPR2, rucaparib or vehicle Rucaparib, cell line OCI-P5x (serous), technical replicate 1?
viability, normalised (%): 114

For NPR2, rucaparib or vehicle Rucaparib, cell line OCI-P5x (serous), technical replicate 2, what does the deposit list?
viability, normalised (%): 113

For NPR2, rucaparib or vehicle Rucaparib, cell line OCI-P5x (serous), technical replicate 3, how do the results read?
viability, normalised (%): 90

Which result is listed for NPR2, rucaparib or vehicle Vehicle, cell line OCI-C5x (clear cell), technical replicate 1?
viability, normalised (%): 47 (active)

For NPR2, rucaparib or vehicle Vehicle, cell line OCI-C5x (clear cell), technical replicate 2, what was measured?
viability, normalised (%): 52.9 (active)

Which result is listed for NPR2, rucaparib or vehicle Vehicle, cell line OCI-C5x (clear cell), technical replicate 3?
viability, normalised (%): 46.4 (active)

How did the screen score NPR2, rucaparib or vehicle Vehicle, cell line OCI-P5x (serous), technical replicate 1?
viability, normalised (%): 93.4

With NPR2, rucaparib or vehicle Vehicle, cell line OCI-P5x (serous), technical replicate 2, how do the results read?
viability, normalised (%): 78.5 (active)

For NPR2, rucaparib or vehicle Vehicle, cell line OCI-P5x (serous), technical replicate 3, what was measured?
viability, normalised (%): 75.6 (active)

In a second layout: entries from further up.
{"Gene": "MYOCD", "rucaparib or vehicle": "Rucaparib", "cell line": "OCI-P5x (serous)", "technical replicate": "3", "viability, normalised (%)": "50.7 (active)"}
{"Gene": "MYOCD", "rucaparib or vehicle": "Vehicle", "cell line": "OCI-C5x (clear cell)", "technical replicate": "1", "viability, normalised (%)": "26.4 (active)"}
{"Gene": "MYOCD", "rucaparib or vehicle": "Vehicle", "cell line": "OCI-C5x (clear cell)", "technical replicate": "2", "viability, normalised (%)": "28.6 (active)"}
{"Gene": "MYOCD", "rucaparib or vehicle": "Vehicle", "cell line": "OCI-C5x (clear cell)", "technical replicate": "3", "viability, normalised (%)": "41.5 (active)"}
{"Gene": "MYOCD", "rucaparib or vehicle": "Vehicle", "cell line": "OCI-P5x (serous)", "technical replicate": "1", "viability, normalised (%)": "39 (active)"}
{"Gene": "MYOCD", "rucaparib or vehicle": "Vehicle", "cell line": "OCI-P5x (serous)", "technical replicate": "2", "viability, normalised (%)": "44.7 (active)"}

Continued:
For F3, rucaparib or vehicle Rucaparib, cell line OCI-C5x (clear cell), technical replicate 1, what does the deposit list?
viability, normalised (%): 56.9 (active)

Which result is listed for F3, rucaparib or vehicle Rucaparib, cell line OCI-C5x (clear cell), technical replicate 2?
viability, normalised (%): 35 (active)

For F3, rucaparib or vehicle Rucaparib, cell line OCI-C5x (clear cell), technical replicate 3, what was measured?
viability, normalised (%): 42.2 (active)

How did the screen score F3, rucaparib or vehicle Rucaparib, cell line OCI-P5x (serous), technical replicate 1?
viability, normalised (%): 43.2 (active)

For F3, rucaparib or vehicle Rucaparib, cell line OCI-P5x (serous), technical replicate 2, what does the deposit list?
viability, normalised (%): 53.3 (active)

Which result is listed for F3, rucaparib or vehicle Rucaparib, cell line OCI-P5x (serous), technical replicate 3?
viability, normalised (%): 51.9 (active)

With F3, rucaparib or vehicle Vehicle, cell line OCI-C5x (clear cell), technical replicate 1, what does the deposit list?
viability, normalised (%): 47.2 (active)

What is on record for F3, rucaparib or vehicle Vehicle, cell line OCI-C5x (clear cell), technical replicate 2?
viability, normalised (%): 48 (active)

With F3, rucaparib or vehicle Vehicle, cell line OCI-C5x (clear cell), technical replicate 3, what does the deposit list?
viability, normalised (%): 55.2 (active)

For F3, rucaparib or vehicle Vehicle, cell line OCI-P5x (serous), technical replicate 1, what was measured?
viability, normalised (%): 39.7 (active)

For F3, rucaparib or vehicle Vehicle, cell line OCI-P5x (serous), technical replicate 2, how do the results read?
viability, normalised (%): 61.1 (active)

For F3, rucaparib or vehicle Vehicle, cell line OCI-P5x (serous), technical replicate 3, what does the deposit list?
viability, normalised (%): 53.6 (active)

What did the screen give for XPO5, rucaparib or vehicle Rucaparib, cell line OCI-C5x (clear cell), technical replicate 1?
viability, normalised (%): 87.8

What did the screen give for XPO5, rucaparib or vehicle Rucaparib, cell line OCI-C5x (clear cell), technical replicate 2?
viability, normalised (%): 75 (active)

How did the screen score XPO5, rucaparib or vehicle Rucaparib, cell line OCI-C5x (clear cell), technical replicate 3?
viability, normalised (%): 62.4 (active)

For XPO5, rucaparib or vehicle Rucaparib, cell line OCI-P5x (serous), technical replicate 1, what does the deposit list?
viability, normalised (%): 78.2 (active)

Which result is listed for XPO5, rucaparib or vehicle Rucaparib, cell line OCI-P5x (serous), technical replicate 2?
viability, normalised (%): 70.3 (active)

For XPO5, rucaparib or vehicle Rucaparib, cell line OCI-P5x (serous), technical replicate 3, what was measured?
viability, normalised (%): 78.3 (active)

For XPO5, rucaparib or vehicle Vehicle, cell line OCI-C5x (clear cell), technical replicate 1, what was measured?
viability, normalised (%): 77.1 (active)

How did the screen score XPO5, rucaparib or vehicle Vehicle, cell line OCI-C5x (clear cell), technical replicate 2?
viability, normalised (%): 67.3 (active)

How did the screen score XPO5, rucaparib or vehicle Vehicle, cell line OCI-C5x (clear cell), technical replicate 3?
viability, normalised (%): 72.8 (active)

For XPO5, rucaparib or vehicle Vehicle, cell line OCI-P5x (serous), technical replicate 1, how do the results read?
viability, normalised (%): 65.8 (active)

How did the screen score XPO5, rucaparib or vehicle Vehicle, cell line OCI-P5x (serous), technical replicate 2?
viability, normalised (%): 54.6 (active)

For XPO5, rucaparib or vehicle Vehicle, cell line OCI-P5x (serous), technical replicate 3, how do the results read?
viability, normalised (%): 81.6
